Results are given in words; binding and its absence hold for the method and conditions named. Binding can be weak; no strength is given. Where a sequence is shown, tags or fusion partners need not be part of it.
Key:
Assay in all cases: BiFC in rice protoplasts
[1] = target: N-terminus of YFP-tagged OsSPL17 (rice)
[2] = target: N-terminus of YFP-tagged OsSPL3 (rice)
[3] = target: N-terminus of YFP-tagged OsSPL4 (rice)
[4] = target: N-terminus of YFP-tagged OsSPL5 (rice)

binding [1]: binds
binding [2]: binds
binding [3]: binds
binding [4]: binds
B1: C-terminus of YFP-tagged OsOTUB1.1 (enzyme)
chain: MGGDYYHSCCGDPDPDLRAPEGPKLPYVGDKEPLSTLAAEFQSGSPILQEKIKLLGEQYDALRRTRGDGNCFYRSFMFSYLEHILETQDKAEVERILKKIEQCKKTLADLGYIEFTFEDFFSIFIDQLESVLQGHESSIGAEELLERTRDQMVSDYVVMFFRFVTSGEIQRRAEFFEPFISGLTNSTVVQFCKASVEPMGEESDHVHIIALSDALGVPIRVMYLDRSSCDAGNISVNHHDFSPEANSSDGAAAAEKPYITLLYRPGHYDILYPK
notes: BiFC construct expressed in rice protoplasts; also called cYFP-OsOTUB1; cYFP-OsOTUB1.1; not shown: C-terminal fragment of YFP from vector pSY-735-35S-cYFP-HA
